Experimental data published in patent US20160108098A1 (GLAXOSMITHKLINE INTELLECTUAL PROPERTY DEVELOPMENT LIMITED, priority 2013, published 2016).
The same purity stands for every peptide and may come from a single statement.

Assay: general procedure: Fmoc solid-phase peptide synthesis; Rink Amide MBHA LL or Rink Amide AM LL (Novabiochem), 0.29-0.38 mmol/g; HBTU or HCTU with NMM
Settings: whole synthesis; for final HPLC purity: C18 HPLC or LC/MS, scale of the general procedure 20-400 μmol, trifluoroacetic acid salt

Substance | final HPLC purity | isolated mass (scale 40 μmol, 9 TFA salt) | isolated mass (scale 35 μmol, 8 TFA salt)
PKPEHPGKDASPEEWNRYYASLRKYLNWVTRQRY-NH2 | >90% | 21 mg | 
PKPEAPGKDASPEELNRYYASLRKYLNWVTRQRY-NH2 | >90% |  | 21 mg
